PubChem BioAssay AID1224828, NIAID, 2016
Here is a random part of about 17,000 deposited reagents. In the full data, 762 (4.5%) are marked active. 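Active calls include both raised and lowered p65 entry, mostly lowered; wells with fewer than 50 cells lack a z-score.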 The raw values are shown without normalisation. Reagents against one gene are numbered here.

Purpose: 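Find genes required for NF-kappaB p65 moving into the nucleus after LPS in mouse macrophages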 (primary screen)
Cells: mouse RAW264.7 G9 macrophage reporter cells (GFP-p65, Tnf promoter-mCherry)
Reagents: siRNA pool against mouse genes, 100 nM
Time to read-out: 2 days siRNA transfection, then 40 min LPS before fixation
Conditions: LPS (Salmonella minnesota R595) at 10 ng/ml
Measurement: 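Imaged p65 nuclear translocation ratio, normalised to the plate median, converted to robust z-scores and averaged across two replicates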
Reading the numbers: p65 translocation robust z-score: higher = more nuclear NF-kappaB p65 after LPS than the plate median; nuclear/cytoplasmic p65 ratio: higher = more nuclear NF-kappaB p65
Call rule: 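Called active when z exceeds 3.3 or falls under -1.56 (median of Tlr4 controls), giving activity score of at least 50; no calls for control wells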
Calls: active = hit (p65 shift raised or lowered); inactive = no clear change

For Smg8, what was measured?
nuclear/cytoplasmic p65 ratio, rep 1: 1.34; nuclear/cytoplasmic p65 ratio, rep 2: 1.22; low cell count flag: fewer than 50 cells per well; well left out of scoring; call: inactive

Which result is listed for Rab11b #1?
p65 translocation robust z-score: -1.3; nuclear/cytoplasmic p65 ratio, rep 1: 1.34; nuclear/cytoplasmic p65 ratio, rep 2: 1.38; low cell count flag: enough cells to score; call: inactive

With Rab11b #2, how do the results read?
p65 translocation robust z-score: -0.08; nuclear/cytoplasmic p65 ratio, rep 1: 1.55; nuclear/cytoplasmic p65 ratio, rep 2: 1.52; low cell count flag: enough cells to score; call: inactive

With Padi2, what was measured?
nuclear/cytoplasmic p65 ratio, rep 1: 1.47; nuclear/cytoplasmic p65 ratio, rep 2: 1.31; low cell count flag: fewer than 50 cells per well; well left out of scoring; call: inactive

For Cdc42ep4, what was measured?
p65 translocation robust z-score: -1.12; nuclear/cytoplasmic p65 ratio, rep 1: 1.43; nuclear/cytoplasmic p65 ratio, rep 2: 1.59; low cell count flag: enough cells to score; call: inactive

What did the screen give for Chst10?
p65 translocation robust z-score: 0.11; nuclear/cytoplasmic p65 ratio, rep 1: 1.61; nuclear/cytoplasmic p65 ratio, rep 2: 1.8; low cell count flag: enough cells to score; call: inactive

2 entries already listed, ordered by “nuclear/cytoplasmic p65 ratio, rep 2”, highest first.
Cdc42ep4 | p65 translocation robust z-score = -1.12; nuclear/cytoplasmic p65 ratio, rep 1 = 1.43; nuclear/cytoplasmic p65 ratio, rep 2 = 1.59; low cell count flag = enough cells to score; call = inactive
Padi2 | nuclear/cytoplasmic p65 ratio, rep 1 = 1.47; nuclear/cytoplasmic p65 ratio, rep 2 = 1.31; low cell count flag = fewer than 50 cells per well; well left out of scoring; call = inactive

The listing continues.
With Ifi27l2a, what does the deposit list?
p65 translocation robust z-score: -1.09; nuclear/cytoplasmic p65 ratio, rep 1: 1.43; nuclear/cytoplasmic p65 ratio, rep 2: 1.47; low cell count flag: enough cells to score; call: inactive

What is on record for Prmt7?
p65 translocation robust z-score: -0.35; nuclear/cytoplasmic p65 ratio, rep 1: 1.54; nuclear/cytoplasmic p65 ratio, rep 2: 1.77; low cell count flag: enough cells to score; call: inactive

How did the screen score Pgf?
p65 translocation robust z-score: 2.42; nuclear/cytoplasmic p65 ratio, rep 1: 1.91; nuclear/cytoplasmic p65 ratio, rep 2: 1.65; low cell count flag: enough cells to score; call: inactive

What did the screen give for Gxylt2?
p65 translocation robust z-score: -0.23; nuclear/cytoplasmic p65 ratio, rep 1: 1.46; nuclear/cytoplasmic p65 ratio, rep 2: 1.43; low cell count flag: enough cells to score; call: inactive

With Ccr9, how do the results read?
p65 translocation robust z-score: -0.9; nuclear/cytoplasmic p65 ratio, rep 1: 1.44; nuclear/cytoplasmic p65 ratio, rep 2: 1.38; low cell count flag: enough cells to score; call: inactive

For Rpl28, what does the deposit list?
p65 translocation robust z-score: -0.87; nuclear/cytoplasmic p65 ratio, rep 1: 1.27; nuclear/cytoplasmic p65 ratio, rep 2: 1.15; low cell count flag: enough cells to score; call: inactive

For Rplp1, what does the deposit list?
nuclear/cytoplasmic p65 ratio, rep 1: 1.32; nuclear/cytoplasmic p65 ratio, rep 2: 1.26; low cell count flag: fewer than 50 cells per well; well left out of scoring; call: inactive

With Hoxd1, how do the results read?
p65 translocation robust z-score: 0.95; nuclear/cytoplasmic p65 ratio, rep 1: 1.8; nuclear/cytoplasmic p65 ratio, rep 2: 1.69; low cell count flag: enough cells to score; call: inactive
